Data as given in PMC2671563 (PLoS Biology, 2009).
These are yes or no findings as the source states them, for the method shown. Some entries that bind do so weakly or less than the wild type.

The chains behind the UniProt entries cited, without tags or fusion partners. Where a name states a change or a piece, a line headed by the entry shows the natural chain unless it says otherwise.
UniProt O00206: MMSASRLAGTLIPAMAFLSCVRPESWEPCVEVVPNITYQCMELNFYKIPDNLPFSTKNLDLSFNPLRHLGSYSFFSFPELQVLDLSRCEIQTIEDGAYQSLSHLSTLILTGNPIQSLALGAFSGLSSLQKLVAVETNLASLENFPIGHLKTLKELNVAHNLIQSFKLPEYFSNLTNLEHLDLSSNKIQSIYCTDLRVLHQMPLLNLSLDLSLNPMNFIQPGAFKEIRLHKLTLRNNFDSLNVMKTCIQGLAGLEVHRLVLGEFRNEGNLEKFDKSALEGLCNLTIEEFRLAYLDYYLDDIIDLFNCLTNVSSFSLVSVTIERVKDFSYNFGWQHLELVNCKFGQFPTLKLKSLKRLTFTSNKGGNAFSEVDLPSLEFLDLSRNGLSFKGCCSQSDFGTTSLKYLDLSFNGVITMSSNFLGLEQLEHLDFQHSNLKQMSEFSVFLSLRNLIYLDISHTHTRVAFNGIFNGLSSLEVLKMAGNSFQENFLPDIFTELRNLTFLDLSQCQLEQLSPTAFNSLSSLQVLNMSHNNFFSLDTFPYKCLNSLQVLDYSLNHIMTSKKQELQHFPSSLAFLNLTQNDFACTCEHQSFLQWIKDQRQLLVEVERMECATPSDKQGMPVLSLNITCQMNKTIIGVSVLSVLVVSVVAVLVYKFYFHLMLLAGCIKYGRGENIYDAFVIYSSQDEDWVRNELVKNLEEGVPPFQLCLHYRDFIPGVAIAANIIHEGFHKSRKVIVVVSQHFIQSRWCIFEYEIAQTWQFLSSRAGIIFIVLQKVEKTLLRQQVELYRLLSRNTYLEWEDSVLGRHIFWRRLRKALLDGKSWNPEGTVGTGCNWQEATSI

B1: human S100A8 (protein, UniProt P05109 1-93)
chain: MLTELEKALNSIIDVYHKYSLIKGNFHAVYRDDLKKLLETECPQYIRKKGADVWFKELDINTDGAVNFQEFLILVIKMGVAAHKKSHEESHKE
B2: human S100A9 (natural protein, UniProt P06702 1-114, looked up)
chain: MTCKMSQLERNIETIINTFHQYSVKLGHPDTLNQGEFKELVRKDLQNFLKKENKNEKVIEHIMEDLDTNADKQLSFEEFIMLMARLTWASHEKMHEGDEGPGHHHKPGLGEGTP
notes: S100A9, human; called homodimeric; also called hS100A9; homodimeric S100A9; source: either produced recombinantly in Escherichia coli or purified from granulocytes

Experiments:
human TLR4/MD-2 complex [1] = biological target: T1, human TLR4/MD-2 complex (human, UniProt O00206 24-631; Q9Y6Y9 19-160); assay: SPR; S100 proteins injected (100 nM, or a range of concentrations; 30 ul/min) over human TLR4/MD2 immobilised by amine coupling (~3,000 RU); HBS-P pH 7.4 with 1 mM Ca2+ and 10 uM Zn2+; fit to a 1:1 model with mass transfer; half-maximal binding from responses at late association (apparent); both …
T1 construct: Toll-like receptor 4, human; MD-2, human; Soluble recombinant complex; also called hTLR4/MD-2; hTLR4/MD2; source: bought: R&D Systems (carrier-free recombinant)

human TLR4/MD-2 complex [2] = biological target: T1, human TLR4/MD-2 complex; assay: SPR; competition: 100 nM hS100A9 injected (3 min, 30 ul/min) together with soluble hTLR4/MD2 over immobilised hTLR4/MD2 or RAGE; HBS-P with 10 uM Zn2+ and 1 mM Ca2+; responses at late association; both purified

| Binder | binding (human TLR4/MD-2 complex [1]) | binding (human TLR4/MD-2 complex [2]) |
| --- | --- | --- |
| B1 | binds weakly | – |
| B2 | – | binds |
